# According to paper PMC5415086 (Nature, 2010):
# Read-outs that look alike come from different tables or passages of the source.
# How the values were obtained:
# [1] = tested on: mice injected with heat-killed Salmonella typhimurium; conditions: 30 mg/kg before heat-killed Salmonella typhimurium (5×10^9/kg i.v.)
# [2] = i.v.
# [3] = tested on: mice with polymicrobial peritonitis and sepsis caused by CLP; conditions: 30 mg/kg twice a day for two days
structure (smiles),measurement,setting,value
CCNC(=O)C[C@@H]1N=C(c2ccc(Cl)cc2)c2cc(OC)ccc2-n2c(C)nnc21 [I-BET],survival,LPS-treated C57BL/6 mice; 30 mg/kg i.v. 1 hour before LPS (5 mg/kg i.p.),prevent or attenuate death
same,survival,LPS-treated C57BL/6 mice; single dose 30 mg/kg i.v. 1.5 hours after LPS (5 mg/kg i.p.),cured the mice
same,survival,[1],prevent or attenuate death
same,serum titres after injection,[2],remain within the effective concentrations for several hours
same,survival,[3],protected mice against death
